Some entries repeat one wording, which the source may state once for all of them.
Assay: Differential pulse voltammetry: anodic peak potentials and antioxidant activity
Format: physicochemical
Details: classification proposed by Blasco et al. [60], from Ep
Procedure: Electrochemical measurements were performed at room temperature (25 ± 2 °C) in a small-volume electrochemical cell using a potentiostat type SP-240 (BioLogic Science Instruments, Seyssinet-Pariset, France) controlled by EC-Lab V11.36 software. Differential pulse voltammograms were obtained with a pulse amplitude of 100 mV, a potential step of 5 mV, and a modulation time of 0.2 s. Four scans were registered for each sample, and the reported data correspond to the average of at least three replicates. The working electrode was a glassy carbon electrode, GCE (3 mm diameter, BASi M-2012, and the auxiliary and reference electrodes were platinum wire (BASi MW-1033) and Ag/AgCl (3 M KCl, BASi-MW-2052). All potentials are quoted against the used reference electrode. Before each scan, the surface of the glassy carbon electrode was polished on a polishing cloth with 0.05 μm alumina paste and ultrasonically rinsed in deionized water. After polishing, the electrode was washed with ultrapure water and dried with absorbent paper. DPV measurements were carried out in a standard solution of flavone C-monoglucosides and quercetin at a final concentration of 250 μM. Before measurements, the standard solutions were diluted in 0.2 M acetate-acetic buffer (in 80% methanol) at pH 5.0 (v/v: 1:1). Buffer solution also served as a supporting electrolyte. For the test purpose, from registered DPV voltammograms, the anodic oxidation potentials (Epa) in mV and the integrated area under anodic peaks in μA were determined.

Row | Structure (SMILES) | antioxidant power class by first oxidation potential
1 | O=c1cc(-c2ccc(O)c(O)c2)oc2cc(O)c([C@@H]3O[C@H](CO)[C@@H](O)[C@H](O)[C@H]3O)c(O)c12 [Homoorientin (hOR), 3′,4′,5,7-tetrahydroxyflavone-6-glucoside] | high antioxidant power (high antioxidant power (Ep < 0.4 V))
2 | O=c1cc(-c2ccc(O)cc2)oc2cc(O)c([C@@H]3O[C@H](CO)[C@@H](O)[C@H](O)[C@H]3O)c(O)c12 [Isovitexin (iVT), 4′,5,7-trihydroxyflavone-6-glucoside] | low antioxidant power (low antioxidant power (0.8 V < Ep < 1.3 V))
3 | O=c1cc(-c2ccc(O)c(O)c2)oc2c([C@@H]3O[C@H](CO)[C@@H](O)[C@H](O)[C@H]3O)c(O)cc(O)c12 [Orientin (OR), 3′,4′,5,7-tetrahydroxyflavone-8-glucoside] | high antioxidant power (high antioxidant power (Ep < 0.4 V))
4 | O=c1c(O)c(-c2ccc(O)c(O)c2)oc2cc(O)cc(O)c12 [Quercetin (Q), 3,3′,4′,5,7-pentahydroxyflavone, reference compound] | high antioxidant power (high antioxidant power (Ep < 0.4 V))
5 | O=c1cc(-c2ccc(O)cc2)oc2c([C@@H]3O[C@H](CO)[C@@H](O)[C@H](O)[C@H]3O)c(O)cc(O)c12 [Vitexin (VT), 4′,5,7-trihydroxyflavone-8-glucoside] | low antioxidant power (low antioxidant power (0.8 V < Ep < 1.3 V))

From PMC12564449, “Multifaceted Biological Activity of Selected Flavone C-Monoglucosides” (International Journal of Molecular Sciences, 2025)
